Reference: PubChem BioAssay (NCATS)
The shares of active, inactive and inconclusive entries below differ from those in the screen. For some assays here: Potencies beside an inconclusive call are fits to weak or partial responses and may not hold up. Activity calls are given as the source filed them. Calls follow the shape of the dose curve; as a rule, active = well fitted cell-killing curve with a large enough effect; inconclusive = small, poorly fitted or top-dose-only effect, or effect the other way; inactive = no such curve, though single readings can be large or run the other way.

Key:
[1] = Quantitative High-Throughput drug screen in 47 multiple myeloma cell lines against the NCATS MIPE library collection: ARP1_JJKsccF8 cell viability assay (AID 1918928; also: potency is read from the fitted curve at half-maximal effect; nearly all actives have a fitted effect of over 40% in size); settings: ARP1 myeloma cells viability, CellTiter-Glo ATP, 48 h; viability: at 45.8 µM (top of the series)
Outline: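 ATP readout (CellTiter-Glo), 48 h drug incubation, 37 °C/5% CO2, 500 cells per well; normalisation to DMSO (100%) and media-only (0%) controls.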

[2] = Quantitative High-Throughput drug screen in 47 multiple myeloma cell lines against the NCATS MIPE library collection: Karpas620_DSMZ cell viability assay (AID 1918959); also: potency is read from the fitted curve at half-maximal effect; nearly all actives have a fitted effect of over 30% in size
Outline: (§1)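 Primary qHTS used for cherry-picking: cells at 500/well, library compounds for 48 h (37C, 5% CO2), luminescent ATP assay.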

[3] = Quantitative High-Throughput drug screen in 47 multiple myeloma cell lines against the NCATS MIPE library collection: Karpas417_ECACC cell viability assay (AID 1918961); settings: Karpas417 myeloma viability, CellTiter-Glo ATP luminescence, 48 h; viability (% of DMSO): at 45.8 µM (top of the series); also: potency is read from the fitted curve at half-maximal effect
Outline: (§2)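 We plated 500 myeloma cells per well, pinned in MIPE 4.0 compounds, and incubated for 48 hours at 37C. ATP was then quantified with CellTiter-Glo, with DMSO and media-only wells defining 100% and 0%.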

[4] = Quantitative High-Throughput drug screen in 47 multiple myeloma cell lines against the NCATS MIPE library collection: KHM11_PLB cell viability assay (AID 1918962); settings: KHM11 myeloma cell viability, CellTiter-Glo ATP luminescence, 48 h; series mostly up to 45.8 µM; also: potency is read from the fitted curve at half-maximal effect; nearly all actives have a fitted effect of over 35% in size
Outline: as §1

[5] = Quantitative High-Throughput drug screen in 47 multiple myeloma cell lines against the NCATS MIPE library collection: INA6_PLB cell viability assay (AID 1918965; also: potency is read from the fitted curve at half-maximal effect; nearly all actives have a fitted effect of over 55% in size)
Outline: as §2

[6] = Quantitative High-Throughput drug screen in 47 multiple myeloma cell lines against the NCATS MIPE library collection: JJN3_DSMZ cell viability assay (AID 1918966; also: potency is read from the fitted curve at half-maximal effect; nearly all actives have a fitted effect of over 50% in size)
Outline: (§3)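 CellTiter-Glo luminescence (ATP) after 48 h compound exposure, 37C/5% CO2; 500 cells/well; MIPE 4.0 approved/investigational drugs pinned in; DMSO = 100%, media only = 0% viability.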

[7] = Quantitative High-Throughput drug screen in 47 multiple myeloma cell lines against the NCATS MIPE library collection: H1112_PLB cell viability assay (AID 1918967; also: nearly all actives have a fitted effect of over 30% in size)
Outline: as §3

[8] = Quantitative High-Throughput drug screen in 47 multiple myeloma cell lines against the NCATS MIPE library collection: Karpas25_ECACC cell viability assay (AID 1918968; also: potency is read from the fitted curve at half-maximal effect; nearly all actives have a fitted effect of over 35% in size)
Outline: as §3

[9] = Quantitative High-Throughput drug screen in 47 multiple myeloma cell lines against the NCATS MIPE library collection: MOLP8_DSMZ cell viability assay (AID 1918977); settings: MOLP8 myeloma viability, CellTiter-Glo ATP luminescence, 48 h; series mostly up to 45.8 µM; also: nearly all actives have a fitted effect of over 45% in size
Outline: (§4)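 Plated at 500 cells per well, myeloma lines received MIPE 4.0 compounds by pin tool. Following 48 h culture at 37 °C, CellTiter-Glo luminescence gave viability relative to DMSO and media-only controls.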

[10] = Quantitative High-Throughput drug screen in 47 multiple myeloma cell lines against the NCATS MIPE library collection: LP1_DSMZ cell viability assay (AID 1918982); also: potency is read from the fitted curve at half-maximal effect; nearly all actives have a fitted effect of over 35% in size
Outline: as §4

[11] = Quantitative High-Throughput drug screen in 47 multiple myeloma cell lines against the NCATS MIPE library collection: OCIMY7_PLB cell viability assay (AID 1918987); settings: OCI-MY7 myeloma viability, CellTiter-Glo ATP, 48 h; viability (% of DMSO): at 45.8 µM (top of the series); also: potency is read from the fitted curve at half-maximal effect; nearly all actives have a fitted effect of over 65% in size
Outline: as §4

[12] = Quantitative High-Throughput drug screen in 47 multiple myeloma cell lines against the NCATS MIPE library collection: OCIMY5_PLB cell viability assay (AID 1918988); also: potency is read from the fitted curve at half-maximal effect; nearly all actives have a fitted effect of over 65% in size
Outline: as §4

[13] = Quantitative High-Throughput drug screen in 47 multiple myeloma cell lines against the NCATS MIPE library collection: OPM1_PLB cell viability assay (AID 1918989); also: potency is read from the fitted curve at half-maximal effect; nearly all actives have a fitted effect of over 40% in size
Outline: as §4

[14] = Quantitative High-Throughput drug screen in 47 multiple myeloma cell lines against the NCATS MIPE library collection: SKMM1_PLB cell viability assay (AID 1919863); settings: SKMM1 myeloma viability, CellTiter-Glo ATP, 48 h; viability: stronger effect = lower value; also: potency is read from the fitted curve at half-maximal effect; nearly all actives have a fitted effect of over 35% in size
Outline: as §4

[15] = Quantitative High-Throughput drug screen in 47 multiple myeloma cell lines against the NCATS MIPE library collection: U266_ATCC cell viability assay (AID 1919864)
Outline: as §4

[16] = Quantitative High-Throughput drug screen in 47 multiple myeloma cell lines against the NCATS MIPE library collection: XG1_PLB cell viability assay (AID 1919866); also: nearly all actives have a fitted effect of over 35% in size
Outline: as §4

[17] = Quantitative High-Throughput drug screen in 47 multiple myeloma cell lines against the NCATS MIPE library collection: VP6_DJ cell viability assay (AID 1919867); settings: ATP luminescence, 48 h; viability (% of DMSO): at 45.8 µM (top of the series); also: potency is read from the fitted curve at half-maximal effect; nearly all actives have a fitted effect of over 40% in size
Outline: as §4

[18] = Quantitative High-Throughput drug screen in 47 multiple myeloma cell lines against the NCATS MIPE library collection: PCM6_Riken cell viability assay (AID 1919870); also: potency is read from the fitted curve at half-maximal effect; nearly all actives have a fitted effect of over 30% in size
Outline: as §4

[19] = Quantitative High-Throughput drug screen in 47 multiple myeloma cell lines against the NCATS MIPE library collection: RPMI8226_ATCC cell viability assay (AID 1919871); also: potency is read from the fitted curve at half-maximal effect; nearly all actives have a fitted effect of over 30% in size
Outline: as §4

[20] = Quantitative High-Throughput drug screen in 47 multiple myeloma cell lines against the NCATS MIPE library collection: KMS11_JCRBsus cell viability assay (AID 1919873); also: potency is read from the fitted curve at half-maximal effect; nearly all actives have a fitted effect of over 50% in size
Outline: as §4

Measured: Potency

CCN(CC)CC#CCOC(=O)C(O)(c1ccccc1)C1CCCCC1 (stereo not given)
inactive: [7] | [9] | [16]
inconclusive: [1] 0.296 µM [cytotoxic, full curve, poor fit] | [2] 26.4 µM [cytotoxic, single point] | [3] 29.6 µM [cytotoxic, partial curve, poor fit] | [4] 0.0264 µM [rising, full curve, poor fit] | [5] 20.9 µM [cytotoxic, partial curve, poor fit] | [6] 0.0118 µM [rising, full curve, poor fit] | [8] 37.2 µM [cytotoxic, single point] | [10] 20.9 µM [cytotoxic, single point] | [11] 7.43 µM [rising, partial curve, poor fit] | [12] 37.2 µM [cytotoxic, single point] | [13] 0.0033 µM [rising, full curve, poor fit] | [14] 16.6 µM [cytotoxic, partial curve, poor fit] | [15] 0.0066 µM [rising, full curve, poor fit] | [17] 33.2 µM [cytotoxic, single point] | [18] 37.2 µM [cytotoxic, single point] | [19] 20.9 µM [cytotoxic, single point] | [20] 29.6 µM [cytotoxic, single point]
